PubChem BioAssay AID1508597 – Cure First, 2020
This is an unselected part of the about 2,100 reagents, under one of the conditions tested. 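Calls flag viability under 80% in either arm, not effects specific to rucaparib; the reference for percent is not stated.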 Some reagents were tested in more than one well and are listed for each. The record does not give: the 100% reference.

Aim: 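Knock-downs altering ovarian cancer cell survival with or without PARP inhibitor rucaparib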 (primary screen)
Cell system: human ovarian carcinoma lines grown from tumours: OCI-P5x (papillary serous) and OCI-C5x (clear cell)
Reagent: siRNA pool against human genes, 1.25 pmol siRNA per well
Duration: 72 h or 96 h, depending on the cell culture
Treatment: rucaparib 20 µM (about IC30) or vehicle, present until read-out
Rucaparib or vehicle: Rucaparib
Cell line: OCI-P5x (serous)
Measured: 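Luminescent ATP-based viability assay read 72 or 96 h after transfection, depending on culture, given as normalised percent viability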
Reading the numbers: viability, normalised: higher = more viable cells remaining
Active means: 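a well counts as a hit if its normalised viability is under 80 percent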
Calls: active = viability under 80%; inactive = viability 80% or more

Target gene | technical replicate | viability, normalised (%) | activity call
CDC7 | 1 | 76.2 | active
CDC7 | 2 | 82.1 | inactive
CDC7 | 3 | 91.8 | inactive
TRIM66 | 1 | 86.8 | inactive
TRIM66 | 2 | 92.3 | inactive
TRIM66 | 3 | 76.3 | active
PARP2 | 1 | 30.7 | active
PARP2 | 1 | 79 | active
PARP2 | 2 | 64.8 | active
PARP2 | 2 | 43.5 | active
PARP2 | 3 | 67.6 | active
PARP2 | 3 | 53.9 | active
DQX1 | 1 | 55.7 | active
DQX1 | 2 | 59 | active
DQX1 | 3 | 54.8 | active

Continued; the last 2 above are carried over.
Target gene | technical replicate | viability, normalised (%) | activity call
DQX1 | 2 | 59 | active
DQX1 | 3 | 54.8 | active
BMP2K | 1 | 77.7 | active
BMP2K | 2 | 65.6 | active
BMP2K | 3 | 65.8 | active
HCK | 1 | 51.1 | active
HCK | 1 | 103 | inactive
HCK | 2 | 96.5 | inactive
HCK | 2 | 57.7 | active
HCK | 3 | 56.3 | active
HCK | 3 | 107 | inactive
SOX14 | 1 | 45.4 | active
SOX14 | 2 | 62.6 | active
SOX14 | 3 | 60.9 | active
HLTF | 1 | 56.5 | active
HLTF | 2 | 61.5 | active
HLTF | 3 | 56.3 | active
CNP | 1 | 57.8 | active
CNP | 2 | 63.7 | active
CNP | 3 | 58.3 | active
MYO6 | 1 | 52.5 | active
MYO6 | 2 | 56.7 | active
MYO6 | 3 | 55.1 | active
CTSD | 1 | 71.9 | active
CTSD | 2 | 64.9 | active
CTSD | 3 | 86.9 | inactive
